According to PMC7035669:
No constants are given. Whether binding was seen depends on the method and setting. In cells and extracts the contact can be indirect. Some binding calls cover weakened binding; strength is not graded here.

Chains of the proteins cited; added tags and fusions are not shown. Lines headed by an entry give the natural chain unless they say otherwise; changes in a name come on top. A line that says so, or that is headed by a name, gives the form on record, which may keep a tag or linker. Residues count along the entry.
UniProt P05556, residues 752-798: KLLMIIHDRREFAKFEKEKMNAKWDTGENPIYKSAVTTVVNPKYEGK
Full length human FLNA with C-terminal GFP, A1448V (P21333-1, form named): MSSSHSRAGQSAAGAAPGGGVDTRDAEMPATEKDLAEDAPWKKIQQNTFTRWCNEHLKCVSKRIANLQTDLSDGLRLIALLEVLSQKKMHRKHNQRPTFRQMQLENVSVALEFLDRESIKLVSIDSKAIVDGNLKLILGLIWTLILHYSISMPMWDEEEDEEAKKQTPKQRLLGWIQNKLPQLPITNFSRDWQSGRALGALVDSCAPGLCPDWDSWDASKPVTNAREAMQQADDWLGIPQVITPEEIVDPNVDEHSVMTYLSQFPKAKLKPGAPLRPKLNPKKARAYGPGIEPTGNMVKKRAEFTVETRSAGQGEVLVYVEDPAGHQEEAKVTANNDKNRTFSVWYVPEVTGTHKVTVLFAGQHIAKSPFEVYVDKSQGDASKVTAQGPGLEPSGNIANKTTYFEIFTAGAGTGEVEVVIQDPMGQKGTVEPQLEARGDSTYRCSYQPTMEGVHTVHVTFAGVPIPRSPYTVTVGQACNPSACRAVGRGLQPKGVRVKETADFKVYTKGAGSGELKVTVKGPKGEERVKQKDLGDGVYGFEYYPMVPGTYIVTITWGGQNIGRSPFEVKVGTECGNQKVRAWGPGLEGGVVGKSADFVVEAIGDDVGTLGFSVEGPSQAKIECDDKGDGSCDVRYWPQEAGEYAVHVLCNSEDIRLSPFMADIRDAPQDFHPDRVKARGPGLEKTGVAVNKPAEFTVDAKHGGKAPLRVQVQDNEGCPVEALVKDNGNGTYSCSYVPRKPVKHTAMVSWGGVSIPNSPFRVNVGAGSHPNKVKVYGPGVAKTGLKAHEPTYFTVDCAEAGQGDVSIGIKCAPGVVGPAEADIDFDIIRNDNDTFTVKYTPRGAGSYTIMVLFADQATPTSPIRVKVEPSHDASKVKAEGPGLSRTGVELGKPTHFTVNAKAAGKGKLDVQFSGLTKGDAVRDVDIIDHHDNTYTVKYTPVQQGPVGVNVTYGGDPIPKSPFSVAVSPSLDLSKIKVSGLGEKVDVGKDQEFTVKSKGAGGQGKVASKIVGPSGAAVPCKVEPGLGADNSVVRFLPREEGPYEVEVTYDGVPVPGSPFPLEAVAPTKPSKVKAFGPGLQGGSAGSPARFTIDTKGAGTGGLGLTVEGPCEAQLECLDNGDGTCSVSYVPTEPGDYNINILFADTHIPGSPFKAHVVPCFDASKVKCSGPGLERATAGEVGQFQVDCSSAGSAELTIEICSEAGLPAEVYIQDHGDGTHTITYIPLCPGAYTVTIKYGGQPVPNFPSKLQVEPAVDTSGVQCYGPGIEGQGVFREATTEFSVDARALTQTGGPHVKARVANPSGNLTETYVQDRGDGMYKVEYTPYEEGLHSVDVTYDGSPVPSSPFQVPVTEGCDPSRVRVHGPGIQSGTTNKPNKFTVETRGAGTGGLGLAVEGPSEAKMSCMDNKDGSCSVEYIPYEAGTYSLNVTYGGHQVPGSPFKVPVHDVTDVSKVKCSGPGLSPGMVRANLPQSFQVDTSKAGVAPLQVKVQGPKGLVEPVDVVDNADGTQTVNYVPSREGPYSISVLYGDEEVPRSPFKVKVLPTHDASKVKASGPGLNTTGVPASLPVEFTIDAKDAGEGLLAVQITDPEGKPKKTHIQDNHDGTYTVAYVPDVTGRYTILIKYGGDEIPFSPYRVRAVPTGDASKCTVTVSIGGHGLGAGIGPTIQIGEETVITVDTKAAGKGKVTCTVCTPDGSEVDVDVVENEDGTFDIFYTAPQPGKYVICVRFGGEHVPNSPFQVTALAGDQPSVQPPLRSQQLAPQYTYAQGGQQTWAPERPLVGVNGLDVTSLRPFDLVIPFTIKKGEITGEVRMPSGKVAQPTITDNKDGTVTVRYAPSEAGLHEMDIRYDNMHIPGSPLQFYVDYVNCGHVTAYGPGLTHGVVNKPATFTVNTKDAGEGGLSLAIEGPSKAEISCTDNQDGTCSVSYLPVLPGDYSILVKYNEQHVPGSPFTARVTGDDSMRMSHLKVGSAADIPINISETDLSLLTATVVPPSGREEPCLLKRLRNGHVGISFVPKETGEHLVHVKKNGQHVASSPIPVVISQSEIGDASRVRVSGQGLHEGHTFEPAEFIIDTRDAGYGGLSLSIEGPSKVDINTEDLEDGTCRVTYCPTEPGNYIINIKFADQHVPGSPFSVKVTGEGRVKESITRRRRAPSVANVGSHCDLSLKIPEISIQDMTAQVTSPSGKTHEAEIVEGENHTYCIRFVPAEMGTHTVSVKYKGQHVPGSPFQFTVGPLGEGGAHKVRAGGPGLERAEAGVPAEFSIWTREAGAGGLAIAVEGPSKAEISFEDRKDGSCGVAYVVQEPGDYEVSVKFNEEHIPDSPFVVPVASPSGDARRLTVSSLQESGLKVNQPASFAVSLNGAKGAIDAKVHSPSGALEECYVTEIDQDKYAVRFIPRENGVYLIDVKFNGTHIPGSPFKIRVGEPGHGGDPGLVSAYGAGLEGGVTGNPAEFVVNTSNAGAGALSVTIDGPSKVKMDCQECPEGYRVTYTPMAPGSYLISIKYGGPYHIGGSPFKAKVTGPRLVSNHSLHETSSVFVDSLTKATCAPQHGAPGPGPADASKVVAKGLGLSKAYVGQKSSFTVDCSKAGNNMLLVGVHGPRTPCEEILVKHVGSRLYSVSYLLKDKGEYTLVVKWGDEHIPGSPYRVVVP
Full length human FLNA with C-terminal GFP, C2160R (P21333-1, form named): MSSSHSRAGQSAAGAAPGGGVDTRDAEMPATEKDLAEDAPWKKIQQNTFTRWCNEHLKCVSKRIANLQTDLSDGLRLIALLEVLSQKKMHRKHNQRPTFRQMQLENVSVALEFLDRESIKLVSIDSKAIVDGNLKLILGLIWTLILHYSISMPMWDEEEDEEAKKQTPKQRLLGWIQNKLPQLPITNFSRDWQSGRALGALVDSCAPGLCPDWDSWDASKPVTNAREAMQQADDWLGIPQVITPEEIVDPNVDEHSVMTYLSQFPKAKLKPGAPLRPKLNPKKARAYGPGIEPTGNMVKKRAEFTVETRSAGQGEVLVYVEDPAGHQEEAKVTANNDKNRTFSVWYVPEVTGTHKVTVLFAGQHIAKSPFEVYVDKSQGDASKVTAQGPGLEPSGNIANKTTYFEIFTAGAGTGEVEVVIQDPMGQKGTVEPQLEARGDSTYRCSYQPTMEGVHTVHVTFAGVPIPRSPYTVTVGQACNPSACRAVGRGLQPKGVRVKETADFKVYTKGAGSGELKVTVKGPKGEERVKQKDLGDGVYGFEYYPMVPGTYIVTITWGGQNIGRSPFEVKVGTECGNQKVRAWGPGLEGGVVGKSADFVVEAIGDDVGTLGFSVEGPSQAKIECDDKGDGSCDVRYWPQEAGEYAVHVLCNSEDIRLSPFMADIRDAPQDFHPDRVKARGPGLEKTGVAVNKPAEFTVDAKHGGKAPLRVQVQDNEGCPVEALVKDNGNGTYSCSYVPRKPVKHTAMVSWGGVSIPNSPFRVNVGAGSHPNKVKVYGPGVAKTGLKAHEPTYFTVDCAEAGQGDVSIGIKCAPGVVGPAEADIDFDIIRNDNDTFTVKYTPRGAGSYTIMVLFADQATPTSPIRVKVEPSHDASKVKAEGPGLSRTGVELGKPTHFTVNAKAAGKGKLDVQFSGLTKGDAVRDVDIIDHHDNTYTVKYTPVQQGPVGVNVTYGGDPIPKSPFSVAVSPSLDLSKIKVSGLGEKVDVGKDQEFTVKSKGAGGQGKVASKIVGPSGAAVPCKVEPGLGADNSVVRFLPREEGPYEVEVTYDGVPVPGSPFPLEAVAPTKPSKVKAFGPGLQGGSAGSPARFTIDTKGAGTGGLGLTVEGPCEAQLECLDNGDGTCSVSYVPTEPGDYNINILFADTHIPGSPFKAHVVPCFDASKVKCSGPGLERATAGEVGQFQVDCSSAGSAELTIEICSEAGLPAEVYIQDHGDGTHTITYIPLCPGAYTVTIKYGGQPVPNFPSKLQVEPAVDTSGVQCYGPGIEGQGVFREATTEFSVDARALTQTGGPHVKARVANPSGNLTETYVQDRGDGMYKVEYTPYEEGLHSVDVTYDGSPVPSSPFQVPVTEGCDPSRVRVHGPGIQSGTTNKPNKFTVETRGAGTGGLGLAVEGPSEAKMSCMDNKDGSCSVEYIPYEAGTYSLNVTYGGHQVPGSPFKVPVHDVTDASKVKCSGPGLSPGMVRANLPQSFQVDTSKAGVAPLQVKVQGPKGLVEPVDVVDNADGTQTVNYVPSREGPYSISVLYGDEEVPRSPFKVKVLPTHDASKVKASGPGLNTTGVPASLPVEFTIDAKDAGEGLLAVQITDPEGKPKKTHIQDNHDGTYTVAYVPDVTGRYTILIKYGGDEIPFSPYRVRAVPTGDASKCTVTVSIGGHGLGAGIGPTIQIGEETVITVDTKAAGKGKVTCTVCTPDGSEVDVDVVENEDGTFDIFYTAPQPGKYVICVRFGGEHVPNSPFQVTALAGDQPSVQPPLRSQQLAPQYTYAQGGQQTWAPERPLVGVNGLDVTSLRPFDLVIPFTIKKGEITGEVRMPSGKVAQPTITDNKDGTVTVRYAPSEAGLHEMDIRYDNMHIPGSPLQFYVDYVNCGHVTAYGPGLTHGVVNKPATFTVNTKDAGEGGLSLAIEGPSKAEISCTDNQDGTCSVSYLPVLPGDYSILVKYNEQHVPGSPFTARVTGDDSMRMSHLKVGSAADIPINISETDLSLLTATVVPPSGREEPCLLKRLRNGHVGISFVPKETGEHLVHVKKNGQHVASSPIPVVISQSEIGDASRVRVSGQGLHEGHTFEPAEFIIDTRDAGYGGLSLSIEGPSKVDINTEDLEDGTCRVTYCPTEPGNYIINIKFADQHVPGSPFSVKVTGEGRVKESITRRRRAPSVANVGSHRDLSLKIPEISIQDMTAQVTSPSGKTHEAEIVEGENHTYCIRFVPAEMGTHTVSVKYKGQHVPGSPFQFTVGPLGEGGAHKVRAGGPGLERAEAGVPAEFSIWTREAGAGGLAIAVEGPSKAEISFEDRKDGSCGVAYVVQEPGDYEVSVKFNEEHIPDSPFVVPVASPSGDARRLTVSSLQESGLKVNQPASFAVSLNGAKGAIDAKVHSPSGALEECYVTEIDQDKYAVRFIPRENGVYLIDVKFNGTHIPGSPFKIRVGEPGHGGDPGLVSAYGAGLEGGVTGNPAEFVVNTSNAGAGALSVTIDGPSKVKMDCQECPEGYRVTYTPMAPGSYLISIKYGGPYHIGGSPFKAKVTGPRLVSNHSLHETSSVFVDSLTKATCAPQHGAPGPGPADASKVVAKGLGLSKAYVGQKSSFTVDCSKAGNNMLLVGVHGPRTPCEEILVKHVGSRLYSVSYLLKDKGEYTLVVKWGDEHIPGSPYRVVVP

Biological target: Integrin β1 (ITGβ1) cytoplasmic tail, wild type (UniProt P05556)
Assay: pull-down; ITGβ1 tails immobilised on beads; lysates of CHO cells transfected with full length FLNA-GFP; buffer XT with 10 mM imidazole, beads washed three times; only the target purified

Row | binding | Substance
1 | binds | Full length human FLNA (Filamin A) with C-terminal GFP, wild type (from UniProt P21333-1 1-2647)
2 | binds | Full length human FLNA with C-terminal GFP, A1448V (from UniProt P21333-1 1-2647)
3 | binds | Full length human FLNA with C-terminal GFP, C2160R (from UniProt P21333-1 1-2647)
4 | binds | Full length human FLNA with C-terminal GFP, G2236E (from UniProt P21333-1 1-2647)
5 | binds | Full length human FLNA with C-terminal GFP, I2144E (from UniProt P21333-1 1-2647)
